From PMC6695195
Read-outs that look alike come from different tables or passages of the source. These are yes or no findings as the source states them, for the method shown. Binding seen in cells or lysates may run through a third protein. Here binding means that the protein was enriched with, or labelled near, the bait; the list need not be complete. Values belong to the molecule of their own block, whether it stands above or below them.

Protein sequences, listed by entry. Tags and fused reporters are not part of them.
UniProt Q02548: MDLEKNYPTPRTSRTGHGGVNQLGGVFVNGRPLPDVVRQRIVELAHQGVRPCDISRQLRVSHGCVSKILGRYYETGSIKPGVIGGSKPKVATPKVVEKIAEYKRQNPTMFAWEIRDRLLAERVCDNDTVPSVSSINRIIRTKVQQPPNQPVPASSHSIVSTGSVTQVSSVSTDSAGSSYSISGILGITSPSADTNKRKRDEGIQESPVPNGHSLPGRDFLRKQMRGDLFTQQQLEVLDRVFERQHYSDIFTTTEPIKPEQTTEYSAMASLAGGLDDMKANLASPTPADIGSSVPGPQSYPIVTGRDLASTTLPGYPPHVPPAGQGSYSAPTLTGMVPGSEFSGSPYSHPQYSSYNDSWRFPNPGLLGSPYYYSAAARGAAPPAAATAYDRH
UniProt Q9R1E0: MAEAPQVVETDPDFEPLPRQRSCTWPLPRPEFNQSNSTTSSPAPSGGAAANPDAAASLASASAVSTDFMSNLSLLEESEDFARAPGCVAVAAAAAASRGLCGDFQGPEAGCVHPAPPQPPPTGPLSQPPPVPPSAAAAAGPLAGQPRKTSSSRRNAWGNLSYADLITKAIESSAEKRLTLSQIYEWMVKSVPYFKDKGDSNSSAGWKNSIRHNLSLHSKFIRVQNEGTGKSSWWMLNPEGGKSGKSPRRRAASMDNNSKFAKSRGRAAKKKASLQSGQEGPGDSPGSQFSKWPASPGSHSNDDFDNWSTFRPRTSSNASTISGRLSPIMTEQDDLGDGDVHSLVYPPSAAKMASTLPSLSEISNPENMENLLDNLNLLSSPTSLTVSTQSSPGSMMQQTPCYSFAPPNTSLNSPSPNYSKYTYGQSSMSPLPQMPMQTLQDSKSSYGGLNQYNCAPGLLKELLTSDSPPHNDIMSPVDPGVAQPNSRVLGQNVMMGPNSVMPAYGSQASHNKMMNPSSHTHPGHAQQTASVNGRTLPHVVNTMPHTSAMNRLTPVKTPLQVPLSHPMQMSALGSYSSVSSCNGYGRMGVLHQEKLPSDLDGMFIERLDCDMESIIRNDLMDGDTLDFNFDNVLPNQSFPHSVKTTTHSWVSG
UniProt Q03267: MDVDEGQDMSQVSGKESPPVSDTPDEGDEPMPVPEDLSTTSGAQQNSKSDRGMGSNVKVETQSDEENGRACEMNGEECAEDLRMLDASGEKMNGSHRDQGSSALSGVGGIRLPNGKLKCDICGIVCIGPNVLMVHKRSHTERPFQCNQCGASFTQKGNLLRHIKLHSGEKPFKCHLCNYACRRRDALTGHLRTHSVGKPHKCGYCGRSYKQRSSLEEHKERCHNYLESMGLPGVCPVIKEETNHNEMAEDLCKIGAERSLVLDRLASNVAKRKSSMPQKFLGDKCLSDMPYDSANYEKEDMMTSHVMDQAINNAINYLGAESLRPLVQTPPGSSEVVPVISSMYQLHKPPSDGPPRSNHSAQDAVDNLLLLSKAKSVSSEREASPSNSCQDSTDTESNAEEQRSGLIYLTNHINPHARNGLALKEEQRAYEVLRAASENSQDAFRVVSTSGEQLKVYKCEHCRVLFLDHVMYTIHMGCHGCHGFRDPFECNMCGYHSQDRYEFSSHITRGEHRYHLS
UniProt O08900: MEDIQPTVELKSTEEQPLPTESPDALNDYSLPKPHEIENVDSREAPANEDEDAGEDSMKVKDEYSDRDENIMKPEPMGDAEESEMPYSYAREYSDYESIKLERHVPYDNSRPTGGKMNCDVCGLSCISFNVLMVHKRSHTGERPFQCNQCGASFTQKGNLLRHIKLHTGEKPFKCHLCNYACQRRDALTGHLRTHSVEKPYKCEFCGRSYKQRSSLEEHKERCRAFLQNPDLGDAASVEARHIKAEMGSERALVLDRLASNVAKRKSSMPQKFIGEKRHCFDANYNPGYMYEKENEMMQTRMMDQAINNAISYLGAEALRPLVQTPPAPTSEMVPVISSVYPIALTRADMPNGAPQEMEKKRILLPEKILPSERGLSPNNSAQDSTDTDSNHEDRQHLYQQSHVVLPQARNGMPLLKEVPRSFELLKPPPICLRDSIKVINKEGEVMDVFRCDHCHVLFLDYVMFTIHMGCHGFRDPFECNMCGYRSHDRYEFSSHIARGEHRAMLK
UniProt P27782: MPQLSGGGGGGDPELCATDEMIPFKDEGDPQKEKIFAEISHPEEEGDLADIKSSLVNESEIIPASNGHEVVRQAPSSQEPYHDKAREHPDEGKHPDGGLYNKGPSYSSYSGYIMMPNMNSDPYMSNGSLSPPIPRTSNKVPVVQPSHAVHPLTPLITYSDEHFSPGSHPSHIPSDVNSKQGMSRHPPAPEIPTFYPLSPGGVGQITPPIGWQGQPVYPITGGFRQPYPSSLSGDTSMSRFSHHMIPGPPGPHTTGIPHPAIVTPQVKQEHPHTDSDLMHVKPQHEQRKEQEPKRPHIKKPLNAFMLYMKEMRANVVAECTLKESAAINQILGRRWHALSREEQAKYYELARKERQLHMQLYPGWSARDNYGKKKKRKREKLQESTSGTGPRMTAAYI
UniProt A2BH40: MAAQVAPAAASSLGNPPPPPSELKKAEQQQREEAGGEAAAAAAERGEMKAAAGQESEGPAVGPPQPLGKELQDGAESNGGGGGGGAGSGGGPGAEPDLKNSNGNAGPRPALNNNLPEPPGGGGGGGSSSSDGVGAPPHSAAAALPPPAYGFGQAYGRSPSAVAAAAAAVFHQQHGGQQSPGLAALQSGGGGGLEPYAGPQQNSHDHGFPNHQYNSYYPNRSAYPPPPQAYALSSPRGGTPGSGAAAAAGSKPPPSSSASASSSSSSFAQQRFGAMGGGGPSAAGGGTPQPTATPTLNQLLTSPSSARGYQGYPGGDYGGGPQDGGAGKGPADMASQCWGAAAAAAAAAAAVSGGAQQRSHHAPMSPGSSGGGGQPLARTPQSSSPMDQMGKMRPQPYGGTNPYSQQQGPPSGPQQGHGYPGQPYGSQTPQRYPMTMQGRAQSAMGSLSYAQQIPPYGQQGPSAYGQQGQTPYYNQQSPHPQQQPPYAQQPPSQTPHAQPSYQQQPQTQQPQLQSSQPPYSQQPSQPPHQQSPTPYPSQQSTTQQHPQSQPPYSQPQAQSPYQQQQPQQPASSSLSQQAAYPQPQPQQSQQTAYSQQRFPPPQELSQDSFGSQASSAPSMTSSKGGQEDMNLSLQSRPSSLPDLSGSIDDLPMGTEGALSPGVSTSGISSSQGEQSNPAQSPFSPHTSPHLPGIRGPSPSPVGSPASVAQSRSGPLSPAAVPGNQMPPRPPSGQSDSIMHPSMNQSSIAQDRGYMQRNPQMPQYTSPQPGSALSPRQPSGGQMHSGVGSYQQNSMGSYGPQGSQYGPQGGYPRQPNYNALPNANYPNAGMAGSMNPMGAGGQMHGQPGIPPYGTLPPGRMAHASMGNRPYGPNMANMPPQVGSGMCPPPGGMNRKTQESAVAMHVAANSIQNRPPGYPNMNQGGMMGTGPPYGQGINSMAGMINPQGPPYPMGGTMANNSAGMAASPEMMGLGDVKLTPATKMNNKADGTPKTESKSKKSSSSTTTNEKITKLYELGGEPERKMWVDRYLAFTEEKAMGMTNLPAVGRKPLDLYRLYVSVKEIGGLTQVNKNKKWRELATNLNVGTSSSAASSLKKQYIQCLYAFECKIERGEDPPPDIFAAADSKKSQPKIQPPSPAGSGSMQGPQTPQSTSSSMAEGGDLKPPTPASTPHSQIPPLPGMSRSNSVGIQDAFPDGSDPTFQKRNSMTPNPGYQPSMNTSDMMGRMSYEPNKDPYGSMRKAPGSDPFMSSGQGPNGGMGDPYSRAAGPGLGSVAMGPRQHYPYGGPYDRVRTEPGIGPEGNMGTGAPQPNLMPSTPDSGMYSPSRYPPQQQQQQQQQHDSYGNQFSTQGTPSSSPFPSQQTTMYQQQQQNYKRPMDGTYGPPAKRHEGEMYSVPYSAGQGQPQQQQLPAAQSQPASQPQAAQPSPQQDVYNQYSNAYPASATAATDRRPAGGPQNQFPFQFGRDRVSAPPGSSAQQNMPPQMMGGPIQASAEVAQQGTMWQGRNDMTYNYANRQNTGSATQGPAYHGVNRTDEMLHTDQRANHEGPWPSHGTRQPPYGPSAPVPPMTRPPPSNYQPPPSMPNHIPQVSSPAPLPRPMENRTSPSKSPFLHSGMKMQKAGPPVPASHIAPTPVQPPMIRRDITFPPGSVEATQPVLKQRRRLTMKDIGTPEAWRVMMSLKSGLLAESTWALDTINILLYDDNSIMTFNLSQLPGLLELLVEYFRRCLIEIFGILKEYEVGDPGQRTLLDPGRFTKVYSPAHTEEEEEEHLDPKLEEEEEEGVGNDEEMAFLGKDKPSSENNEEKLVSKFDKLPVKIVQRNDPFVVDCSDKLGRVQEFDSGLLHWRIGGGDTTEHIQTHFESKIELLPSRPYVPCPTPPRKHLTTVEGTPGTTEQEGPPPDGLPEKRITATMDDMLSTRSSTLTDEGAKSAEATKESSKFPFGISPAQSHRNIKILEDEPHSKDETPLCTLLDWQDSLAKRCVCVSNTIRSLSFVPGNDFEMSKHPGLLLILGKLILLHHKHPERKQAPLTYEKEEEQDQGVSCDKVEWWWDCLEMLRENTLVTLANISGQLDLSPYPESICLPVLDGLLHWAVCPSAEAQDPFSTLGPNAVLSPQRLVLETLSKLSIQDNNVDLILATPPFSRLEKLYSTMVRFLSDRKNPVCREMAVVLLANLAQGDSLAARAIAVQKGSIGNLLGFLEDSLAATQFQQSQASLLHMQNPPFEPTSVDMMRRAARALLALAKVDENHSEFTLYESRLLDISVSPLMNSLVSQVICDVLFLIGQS
UniProt Q03347: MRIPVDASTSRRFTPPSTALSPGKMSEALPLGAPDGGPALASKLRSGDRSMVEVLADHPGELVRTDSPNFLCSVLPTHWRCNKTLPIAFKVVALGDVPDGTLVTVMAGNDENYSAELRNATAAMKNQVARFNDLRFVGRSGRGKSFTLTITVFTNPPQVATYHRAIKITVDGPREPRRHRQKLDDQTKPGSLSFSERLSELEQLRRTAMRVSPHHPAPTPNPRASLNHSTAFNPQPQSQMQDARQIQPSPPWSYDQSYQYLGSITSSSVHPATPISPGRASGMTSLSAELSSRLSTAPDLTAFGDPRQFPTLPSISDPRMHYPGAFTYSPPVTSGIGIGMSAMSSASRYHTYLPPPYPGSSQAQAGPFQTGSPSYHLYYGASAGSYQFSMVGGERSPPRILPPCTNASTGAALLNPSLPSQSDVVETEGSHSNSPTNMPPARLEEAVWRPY
UniProt P42227: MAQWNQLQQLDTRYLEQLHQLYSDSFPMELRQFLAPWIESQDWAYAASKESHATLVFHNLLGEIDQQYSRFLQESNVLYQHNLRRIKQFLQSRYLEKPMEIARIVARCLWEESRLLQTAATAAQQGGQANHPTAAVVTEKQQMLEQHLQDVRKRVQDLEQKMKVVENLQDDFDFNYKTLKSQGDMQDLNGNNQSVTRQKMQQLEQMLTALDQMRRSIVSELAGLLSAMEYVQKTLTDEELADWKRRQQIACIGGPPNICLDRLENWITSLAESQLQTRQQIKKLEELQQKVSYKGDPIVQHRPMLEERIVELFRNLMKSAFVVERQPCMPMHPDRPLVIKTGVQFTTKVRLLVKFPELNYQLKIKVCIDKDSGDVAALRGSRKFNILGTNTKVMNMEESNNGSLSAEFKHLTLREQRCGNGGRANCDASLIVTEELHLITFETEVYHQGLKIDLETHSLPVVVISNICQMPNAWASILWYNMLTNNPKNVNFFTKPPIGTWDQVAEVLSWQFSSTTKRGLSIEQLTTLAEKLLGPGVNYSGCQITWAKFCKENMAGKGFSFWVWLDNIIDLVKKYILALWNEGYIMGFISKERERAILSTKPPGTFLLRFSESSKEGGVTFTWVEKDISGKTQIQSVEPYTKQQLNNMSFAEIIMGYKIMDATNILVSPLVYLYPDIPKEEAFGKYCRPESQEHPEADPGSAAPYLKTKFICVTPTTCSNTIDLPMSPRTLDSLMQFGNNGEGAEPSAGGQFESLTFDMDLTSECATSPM

Columns and labels:
[1] = molecular target: PAX5-BIRA* (fusion of BIRA* with full length human PAX5) (human) (UniProt Q02548); experiment: proximity labelling; BioID: PAX5-BIRA* retrovirally expressed in 230-238 mouse Pre-B cells, pulsed with 50 uM d-biotin; lysate on streptavidin-sepharose beads, trypsination, nano LC-MS/MS; SV40NLS-BIRA* as control; Bayesian FDR 0.02 (SAINT score ~0.80) as cut-off
[2] = molecular target: PAX5-BIRA* (fusion of BIRA* with full length human PAX5) (human) (UniProt Q02548); experiment: as above; remark: listed apart in the source

Molecule: FOXO1 (from UniProt Q9R1E0 1-652)
binding [1]: binds

Molecule: IKZF1 (from UniProt Q03267 1-517)
binding [1]: binds

Molecule: IKZF3 (from UniProt O08900 1-507)
binding [1]: binds

Molecule: LEF1 (from UniProt P27782 1-397)
binding [1]: binds

B2: Ets-protein FLI1 (protein, UniProt P26323 1-452)
chain: MDGTIKEALSVVSDDQSLFDSAYGAAAHLPKADMTASGSPDYGQPHKINPLPPQQEWINQPVRVNVKREYDHMNGSRESPVDCSVSKCNKLVGGGEANPMNYNSYMDEKNGPPPPNMTTNERRVIVPADPTLWTQEHVRQWLEWAIKEYGLMEIDTSFFQNMDGKELCKMNKEDFLRATSAYNTEVLLSHLSYLRESSLLAYNTTSHTDQSSRLNVKEDPSYDSVRRGAWNNNMNSGLNKSPLLGGSQTMGKNTEQRPQPDPYQILGPTSSRLANPGSGQIQLWQFLLELLSDSANASCITWEGTNGEFKMTDPDEVARRWGERKSKPNMNYDKLSRALRYYYDKNIMTKVHGKRYAYKFDFHGIAQALQPHPTETSMYKYPSDISYMPSYHAHQQKVNFVPSHPSSMPVTSSSFFGAASQYWTSPTAGIYPNPSVPRHPNTHVPSHLGSYY
binding [2]: binds

Second part, the molecule after the results:

binding [1]: binds
Molecule: ARID1A (from UniProt A2BH40 1-2283)

binding [1]: binds
Molecule: RUNX1 (from UniProt Q03347 1-451)

binding [1]: binds
Molecule: STAT3 (from UniProt P42227 1-770)

binding [2]: binds
B1: EBF1 (protein, UniProt Q07802 1-591)
chain: MFGIQESIQRSGSSMKEEPLGSGMNAVRTWMQGAGVLDANTAAQSGVGLARAHFEKQPPSNLRKSNFFHFVLALYDRQGQPVEIERTAFVGFVEKEKEANSEKTNNGIHYRLQLLYSNGIRTEQDFYVRLIDSMTKQAIVYEGQDKNPEMCRVLLTHEIMCSRCCDKKSCGNRNETPSDPVIIDRFFLKFFLKCNQNCLKNAGNPRDMRRFQVVVSTTVNVDGHVLAVSDNMFVHNNSKHGRRARRLDPSEGTPSYLEHATPCIKAISPSEGWTTGGATVIIIGDNFFDGLQVIFGTMLVWSELITPHAIRVQTPPRHIPGVVEVTLSYKSKQFCKGTPGRFIYTALNEPTIDYGFQRLQKVIPRHPGDPERLPKEVILKRAADLVEALYGMPHNNQEIILKRAADIAEALYSVPRNHNQLPALANTSVHAGMMGVNSFSGQLAVNVSEASQATNQGFTRNSSSVSPHGYVPSTTPQQTNYNSVTTSMNGYGSAAMSNLGGSPTFLNGSAANSPYAIVPSSPTMASSTSLPSNCSSSSGIFSFSPANMVSAVKQKSAFAPVVRPQTSPPPTCTSTNGNSLQAISGMIVPPM
